Assay results taken from publication PMC7819943, “Rice protein-binding microarrays: a tool to detect cis-acting elements near promoter regions in rice”.
The list shows a part of the results.

Protein sequences, listed by entry. Tags and fused reporters are not part of them.
UniProt Q0JBA9, entry or part of it: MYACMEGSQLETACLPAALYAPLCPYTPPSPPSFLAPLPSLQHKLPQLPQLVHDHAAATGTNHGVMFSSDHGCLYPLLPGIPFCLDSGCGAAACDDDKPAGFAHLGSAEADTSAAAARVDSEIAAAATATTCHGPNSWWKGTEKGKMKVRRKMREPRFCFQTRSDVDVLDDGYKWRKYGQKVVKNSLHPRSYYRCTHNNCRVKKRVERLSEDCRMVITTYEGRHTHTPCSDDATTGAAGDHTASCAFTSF

Biological target: OsWRKY34 (Oryza sativa, UniProt Q0JBA9 1-250)
Experiment: protein-binding microarray (RPBM); PBS, 2% BSA, 51.3 ng/ul salmon testes DNA, 50 uM zinc acetate, 200 nM TF, 25 C, 1 h; high values mean tight binding
Conditions: protein: recombinant; tags: N-terminal polyhistidine and DsRed monomer fusion (pET32a); label: CyDye5-dUTP incorporated in the synthesized complementary strand; 3' TTTTT single-stranded linker to array surface; dsDNA, one strand shown
Method in brief: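 Transcription factors were made in E. coli BL21-CodonPlus as N-terminal fusions to a polyhistidine tag and DsRed, then purified on Ni–NTA. After primer extension with Cy5-dUTP and blocking with 2% BSA, a custom Agilent array was exposed for 1 h at 25 °C to 200 nM protein in PBS, 2% BSA, salmon testes DNA and 50 µM zinc acetate. Washed arrays were scanned on an Axon 4000B, and the binding signal is per-feature fluorescence intensity in arbitrary units.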

Sequence | binding signal
AGTAAGGTTGTGTTCTTTCTCCTTCTTTCCCAACTCACTTCGGAGTCACCTAGTGCAG | 10900 fluorescence intensity (a.u.)
AGGGATTTTCAGTTTTTGCTTGTAACGTTTAACCACTCATCGGAGTCACCTAGTGCAG | 10600 fluorescence intensity (a.u.)
AATCAAAGGGTGTGTATATATTTTTCTTTTTCTCCGAATACGGAGTCACCTAGTGCAG | 11500 fluorescence intensity (a.u.)
TGGGGTGGATGGGTTCGTGGACCAACTGTTTCATTAGATCCGGAGTCACCTAGTGCAG | 12900 fluorescence intensity (a.u.)
AGGCTTAAAAAATTTGTCTCGTGAATTAGCTTTTATTTATCGGAGTCACCTAGTGCAG | 9870 fluorescence intensity (a.u.)
GGCCGTCCAGCGTAATTATGCACTCCTGTCCACTCGTCCACGGAGTCACCTAGTGCAG | 10500 fluorescence intensity (a.u.)
ACCCACACCCACCGACCCACCCCACCAACGCATCGGCGCACGGAGTCACCTAGTGCAG | 14600 fluorescence intensity (a.u.)
TTCAAAACTGCTCCGTTTCCTATTATGTCTCTTTTTCAAACGGAGTCACCTAGTGCAG | 9360 fluorescence intensity (a.u.)
TCCGCCCTCTGACCGCGGCGCCAAAGCTCCTCCGCGCGCGCGGAGTCACCTAGTGCAG | 8030 fluorescence intensity (a.u.)
GATCACATGGGCCACACTTTTTTTTAATTATTTTTTGTGTCGGAGTCACCTAGTGCAG | 8040 fluorescence intensity (a.u.)
CGCACCACCACCACCATTTCCACGCCCCTCTCTCCATTCCCGGAGTCACCTAGTGCAG | 8680 fluorescence intensity (a.u.)
TGGTTTGGTTTGCTTCTTCTCTGCTTCAACGGTTGGTCGACGGAGTCACCTAGTGCAG | 16900 fluorescence intensity (a.u.)
ATCATCCCCTATCTCGCCGCCTGTCCTCTTGCGATTCATGCGGAGTCACCTAGTGCAG | 9110 fluorescence intensity (a.u.)
ATTCTCTTTCATGTGATTTCTGCCCAATTTGATGTGAACCCGGAGTCACCTAGTGCAG | 11700 fluorescence intensity (a.u.)
CTGGGCTGGGTTCCATTGGGCCGAATGCATCGAGGACCCACGGAGTCACCTAGTGCAG | 8110 fluorescence intensity (a.u.)
TATCATTCCGCCAGATGTATAGCTTCGGTTTTCTTACTCACGGAGTCACCTAGTGCAG | 8900 fluorescence intensity (a.u.)
AGATTTTTGTGTCTTTTGCTTGCCCCTATCTATGTTATATCGGAGTCACCTAGTGCAG | 9070 fluorescence intensity (a.u.)
GGTGATGGTCCTCATTCTACCGTGCTGCCTCGGCAGCAACCGGAGTCACCTAGTGCAG | 9140 fluorescence intensity (a.u.)
TGTTTGACGCCGTTGACTTTTTAGCACATGTTTGACCGTTCGGAGTCACCTAGTGCAG | 43600 fluorescence intensity (a.u.)
TTGTGTCACTTACATGTGGGCTCCACATATTTATTTTTTTCGGAGTCACCTAGTGCAG | 8090 fluorescence intensity (a.u.)
AGAACCAAATACGCACGTAGTATATCATTTGTATTTCATTCGGAGTCACCTAGTGCAG | 8380 fluorescence intensity (a.u.)
CCTGCTGATATCAACATGTTTCACACTCTGTGCCAATTTTCGGAGTCACCTAGTGCAG | 9240 fluorescence intensity (a.u.)
GCATAAAAGCATGCTCTCTCTTTTTCTCGTCTCTCTTCTCCGGAGTCACCTAGTGCAG | 12100 fluorescence intensity (a.u.)
AATTTACGTTTTTTCGGTGTCCCATAGCTAATTACATATCCGGAGTCACCTAGTGCAG | 8550 fluorescence intensity (a.u.)
ACAGCGGTTTTGGTTGACGTAGTGCCTATGTGGCGTTGACCGGAGTCACCTAGTGCAG | 11700 fluorescence intensity (a.u.)
TCATTAACTTTAACATATATTTATCCATCCTGTTGTATTCCGGAGTCACCTAGTGCAG | 8380 fluorescence intensity (a.u.)
TATGTGTGTGTTTTTTTTGTTGATTCTTAATTTCAAGAACCGGAGTCACCTAGTGCAG | 12700 fluorescence intensity (a.u.)

Sequence | binding signal
GTTCGGTCCTGTTCACTTTGATGTCATTTTTAACCTTATCCGGAGTCACCTAGTGCAG | 10200 fluorescence intensity (a.u.)
TAGTTACAACTTTTTCTTTAAACTTCCAACTTTTCCATCACGGAGTCACCTAGTGCAG | 8580 fluorescence intensity (a.u.)
CCTGCGCGTTGGCCTGCTTGATGTGTCGGCCCAAAATGGTCGGAGTCACCTAGTGCAG | 8300 fluorescence intensity (a.u.)
CTTGCCTTTTTTATTCCTTAATTCTTAAGCAGCACTTTCACGGAGTCACCTAGTGCAG | 9270 fluorescence intensity (a.u.)
ATCACAATAGTAACTATACTCTACAATCCATGGTTTCTTACGGAGTCACCTAGTGCAG | 8960 fluorescence intensity (a.u.)
CACGTACTCATCCATCTACACATCTTCTTCTCATCATCTCCGGAGTCACCTAGTGCAG | 10000 fluorescence intensity (a.u.)
ATCCAACGCGAGTGTTGCAATGCACTTGGTTTGTTGTTTGCGGAGTCACCTAGTGCAG | 10600 fluorescence intensity (a.u.)
ATTTTCCTATTCGTACGTTTTCTCAATCCTGCGATTAAAGCGGAGTCACCTAGTGCAG | 11600 fluorescence intensity (a.u.)
AGCTTTCACTTTGACCTTAGAATATGTTACACGTTTGTTTCGGAGTCACCTAGTGCAG | 9850 fluorescence intensity (a.u.)
CATGTGCTCAAAGCTTATCTGCATACAAGCCTTCGAGACCCGGAGTCACCTAGTGCAG | 64100 fluorescence intensity (a.u.)
TTTAGGGTTTGTGATTTTGCCCCTGCTTTTTTGAAATGAACGGAGTCACCTAGTGCAG | 10900 fluorescence intensity (a.u.)
ATCTATGCTTGTTCGTCAGTTGTGTTTGTGTCAAATGAGCCGGAGTCACCTAGTGCAG | 10300 fluorescence intensity (a.u.)
TCTCTCTCTCTCTCTCTCTATATATATATATATATATATACGGAGTCACCTAGTGCAG | 9260 fluorescence intensity (a.u.)
TCTCTCTCTTCTCGCCCCACCCTACTCCTTCTAGTACCTCCGGAGTCACCTAGTGCAG | 8300 fluorescence intensity (a.u.)
GCTCGCTGCCCATATATACGCGCGCCTCGCGTCTCCACTTCGGAGTCACCTAGTGCAG | 10900 fluorescence intensity (a.u.)
GGGTGTTTTGTTGACTATGAGTACTTTGACTGAAGAGGGTCGGAGTCACCTAGTGCAG | 10100 fluorescence intensity (a.u.)
ATCCACAGTTTTTTTGACTTGCACCCTTCCTATTATTCCACGGAGTCACCTAGTGCAG | 10700 fluorescence intensity (a.u.)
GCCGGCGCCTCGTCCGTCATTCCGCCTGTGTCAAGCCGAACGGAGTCACCTAGTGCAG | 11500 fluorescence intensity (a.u.)
TGCATCGTCTTAGGATTCTCCGTCTTGCCCACAATACTATCGGAGTCACCTAGTGCAG | 8220 fluorescence intensity (a.u.)
AGACCACCATGCTTCACACTCCACTCCACACTGGCACACTCGGAGTCACCTAGTGCAG | 12900 fluorescence intensity (a.u.)
GACTCCTTCCAATCCTCTTCATCCTCCGCCGCCGCGCTTGCGGAGTCACCTAGTGCAG | 11600 fluorescence intensity (a.u.)
TCCTTCGGCAACGACCTCAACACAGACGTGGGCGACGACGCGGAGTCACCTAGTGCAG | 8060 fluorescence intensity (a.u.)
CTTCCAATTTTAACGTCTACCAAATCTAAATTGTCTGTTCCGGAGTCACCTAGTGCAG | 8370 fluorescence intensity (a.u.)
ATGAGTGATTGATTTCTTGTTTATAGGAGTGGGTTGTTCACGGAGTCACCTAGTGCAG | 11200 fluorescence intensity (a.u.)
ACATGCACAAGGTAGCCTCCGCTTTAATTCCTTCCCTTTTCGGAGTCACCTAGTGCAG | 8860 fluorescence intensity (a.u.)
ACGGTACGCATCGAAGCTCTCTTTCTCTCTGCCCTCTCTACGGAGTCACCTAGTGCAG | 8050 fluorescence intensity (a.u.)
CACTTATTCTTCAGGTTTGGATTCCATCCTGTTCTGTCATCGGAGTCACCTAGTGCAG | 9730 fluorescence intensity (a.u.)

Some of the entries above in a different format:
Sequence	binding signal
ATCCAACGCGAGTGTTGCAATGCACTTGGTTTGTTGTTTGCGGAGTCACCTAGTGCAG	10600 fluorescence intensity (a.u.)
ATTTTCCTATTCGTACGTTTTCTCAATCCTGCGATTAAAGCGGAGTCACCTAGTGCAG	11600 fluorescence intensity (a.u.)
AGCTTTCACTTTGACCTTAGAATATGTTACACGTTTGTTTCGGAGTCACCTAGTGCAG	9850 fluorescence intensity (a.u.)
CATGTGCTCAAAGCTTATCTGCATACAAGCCTTCGAGACCCGGAGTCACCTAGTGCAG	64100 fluorescence intensity (a.u.)
